From publication PMC5963807
No constants are given. Whether binding was seen depends on the method and setting. A result given as binding can be weak or reduced; the word gives no strength. For some assays here: Binding seen in cells or lysates may run through a third protein. For some assays here: Sequences can lack the tags named with a protein.

Columns and labels:
[1] = target: T1, Ufe1p (split-ubiquitin bait) (yeast (S. cerevisiae)) (UniProt P41834); assay: two-hybrid; split-ubiquitin-based membrane yeast two-hybrid assay (MYTH); bait co-expressed with NubG-tagged prey in yeast; empty prey vector (NubG) as negative control
T1 sequence: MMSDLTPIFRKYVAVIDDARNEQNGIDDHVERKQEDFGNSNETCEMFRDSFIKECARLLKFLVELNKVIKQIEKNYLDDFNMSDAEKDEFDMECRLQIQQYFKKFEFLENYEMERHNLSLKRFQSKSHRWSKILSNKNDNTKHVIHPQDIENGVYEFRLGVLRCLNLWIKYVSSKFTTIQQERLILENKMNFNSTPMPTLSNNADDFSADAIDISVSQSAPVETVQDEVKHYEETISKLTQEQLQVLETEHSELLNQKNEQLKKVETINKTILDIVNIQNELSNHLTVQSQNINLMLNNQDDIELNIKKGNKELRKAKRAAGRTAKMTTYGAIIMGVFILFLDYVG

[2] = target: T2, AtSyp81-cYFP (Arabidopsis) (UniProt P59277); assay: split reporter; BiFC in N. benthamiana, proteins expressed via agroinfiltration, confocal microscopy; p33 with AtSyp81: followed by inoculation with TBSV, images 3 days later
T2 sequence: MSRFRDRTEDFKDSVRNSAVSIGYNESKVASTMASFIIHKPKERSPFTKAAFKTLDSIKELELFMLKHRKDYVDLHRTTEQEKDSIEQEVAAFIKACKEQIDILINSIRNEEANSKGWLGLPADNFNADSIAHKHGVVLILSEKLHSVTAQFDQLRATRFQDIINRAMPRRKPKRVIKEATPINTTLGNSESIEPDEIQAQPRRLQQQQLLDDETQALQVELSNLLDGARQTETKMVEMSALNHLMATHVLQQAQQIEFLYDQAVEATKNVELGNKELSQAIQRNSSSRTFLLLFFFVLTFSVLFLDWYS

Row | Substance | binding [1] | binding [2]
1 | CIRV p36 replication protein (tested against the bait Ufe1p) (carnation Italian ringspot virus) | binds | –
2 | nYFP-AtUse1 (Arabidopsis (by the prefix At)) | – | binds
